Data reported in patent US20230318003A1, “REDOX FLOW BATTERY AND AQUEOUS-BASED SOLUTION” (RIVUS AB, priority 2020, published 2023).

Assay: Redox flow battery cycling, capacity utilization
Details: 50 mM
Excerpt: The four different redox flow batteries were assembled according to table 4 below. For all four redox flow batteries, the negative electrolyte was based on NDI (denoted NDI-1) or modified NDI (denoted NDI-2) in a potassium chloride (KCl)-potassium phosphate (KPh) solution or NDI-1 and NDI-2 in an ammonium chloride (AmCl)-ammonium phosphate (AmPh) solution, while the positive electrolyte was based on BTMAP-Fc in a KCl-KPh solution and BTMAP-Fc in an AmCl-AmPh solution. NDI-1 and NDI-2 had the general structure according to formula III with the below listed specification: […]
NDI-1 had the specific formula: 2,7-bis(3-(dimethylamino)propyl)benzo[Imn][3,8]phenanthroline-1,3,6,8(2H,7H)-tetraone and NDI-2 had the specific formula: 4,9-bis(dimethylamino)-2,7-bis(3-(dimethylamino)propyl)benzo[Imn][3,8]phenanthroline-1,3,6,8(2H,7H)-tetraone. The first and second redox flow batteries had NDI-1 and the second and third redox flow batteries had NDI-2. The details of the composition of the first, second, third and fourth redox flow batteries are given in table 4 (the negative aqueous-based electrolyte corresponds to the second aqueous-based electrolyte and the positive aqueous-based electrolyte corresponds to the first aqueous-based electrolyte).
For each one of the four redox flow batteries, 10 ml of the negative electrolyte, and 20 ml of the positive electrolyte was used, to balance the capacities, and the concentration of the redox active materials (BTMAP-Fc, NDI-1 and NDI-2) was 50 mM for all the four redox flow batteries. Each one of the redox flow batteries were cycled (100 cycles) with a current density of 10 mA cm−2, and each cycle took between 1.5 and 2 hours.
The capacity utilizations of the four redox flow batteries shown in FIG. 15 are calculated based on the following relationship: […]

[1] = negative electrolyte in 1M AmCl and 0.5M AmPh, 10 mA cm−2 (batteries 2 and 4)
[2] = negative electrolyte in 1M KCl and 0.5M KPh, 10 mA cm−2 (batteries 1 and 3)

Row | Structure (SMILES) | Capacity change over 100 cycles [1] | Capacity change over 100 cycles [2]
1 | CN(C)CCCN1C(=O)c2cc(N(C)C)c3c4c(cc(N(C)C)c(c24)C1=O)C(=O)N(CCCN(C)C)C3=O [NDI-2, 4,9-bis(dimethylamino)-2,7-bis(3-(dimethylamino)propyl)benzo[Imn][3,8]phenanthroline-1,3,6,8(2H,7H)-tetraone] | slow capacity increase | significant capacity loss
2 | CN(C)CCCN1C(=O)c2ccc3c4c(ccc(c24)C1=O)C(=O)N(CCCN(C)C)C3=O [NDI, 2,7-bis(3-(dimethylamino)propyl)benzo[Imn][3,8]phenanthroline-1,3,6,8(2H,7H)-tetraone] | slow capacity increase | significant capacity loss
